Source: article PMC4597190
No constants are given. Whether binding was seen depends on the method and setting. Binding seen in cells or lysates may run through a third protein. A yes stands for co-enrichment or nearness to the bait. Other partners may have been found.

Protein sequences, listed by entry. Tags and fused reporters are not part of them.
UniProt P34152: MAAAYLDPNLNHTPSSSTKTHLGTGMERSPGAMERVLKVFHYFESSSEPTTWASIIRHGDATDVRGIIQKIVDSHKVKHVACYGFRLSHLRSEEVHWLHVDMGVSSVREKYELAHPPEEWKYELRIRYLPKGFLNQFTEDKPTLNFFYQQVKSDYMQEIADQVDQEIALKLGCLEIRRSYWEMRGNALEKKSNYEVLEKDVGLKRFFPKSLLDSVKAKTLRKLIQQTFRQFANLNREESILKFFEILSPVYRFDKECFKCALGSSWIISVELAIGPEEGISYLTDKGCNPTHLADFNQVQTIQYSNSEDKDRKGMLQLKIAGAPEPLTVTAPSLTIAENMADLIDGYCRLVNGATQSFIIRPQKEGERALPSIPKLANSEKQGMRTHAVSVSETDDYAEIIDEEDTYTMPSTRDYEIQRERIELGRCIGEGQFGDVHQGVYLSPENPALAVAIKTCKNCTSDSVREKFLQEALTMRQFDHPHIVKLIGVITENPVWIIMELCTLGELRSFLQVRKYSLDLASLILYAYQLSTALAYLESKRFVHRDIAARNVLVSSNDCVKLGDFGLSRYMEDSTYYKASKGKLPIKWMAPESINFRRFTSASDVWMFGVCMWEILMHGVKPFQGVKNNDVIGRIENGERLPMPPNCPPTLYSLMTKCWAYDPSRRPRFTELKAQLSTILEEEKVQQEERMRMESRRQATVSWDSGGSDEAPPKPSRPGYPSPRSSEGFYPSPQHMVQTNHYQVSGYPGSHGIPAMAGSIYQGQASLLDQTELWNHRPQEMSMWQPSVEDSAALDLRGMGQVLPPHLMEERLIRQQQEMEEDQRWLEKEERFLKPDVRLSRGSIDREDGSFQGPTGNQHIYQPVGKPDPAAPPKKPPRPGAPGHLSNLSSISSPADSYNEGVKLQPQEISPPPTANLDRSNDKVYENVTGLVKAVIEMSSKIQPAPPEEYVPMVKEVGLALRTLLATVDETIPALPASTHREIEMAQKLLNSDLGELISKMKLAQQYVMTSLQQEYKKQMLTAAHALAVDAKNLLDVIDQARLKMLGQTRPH

Biological target: Focal adhesion kinase (FAK), wild-type, re-expressed in FAK-deficient SCC cells (UniProt P34152)
Experiment: affinity purification with mass spectrometry; FAK immunoprecipitation from purified nuclear extracts, on-bead digestion, quantitative label-free LC-MS/MS; SCC FAK-WT over SCC FAK-/- controls

binding: binds
B1: TAF12, TBP-associated factor, component of the TFIID complex (protein, UniProt Q8VE65 1-161)
chain: MNQFGPSALINLSSFSSVKPEPASTPPQGSMANSTTVGKIAGTPGTGGRLSPENNQVLTKKKLQDLVREVDPNEQLDEDVEEMLLQIADDFIESVVTAACQLARHRKSSTLEVKDVQLHLERQWNMWIPGFGSEEIRPYKKACTTEAHKQRMALIRKTTKK
